The other results are listed elsewhere or left out.
Assays:
Test in all cases: log2 fold change, soluble protein after heating vs DMSO (PISA); higher = thermal stabilisation; K562 cells, 10 uM, 30 min; active = over 0.2 and 3.5 SD of the protein, either way, in both replicates (recomputed)
[1] = compound: CC1=C(C=C(C=C1)NC(=O)C2=CC(=CC=C2)C(C)(C)C#N)NC3=CC4=C(C=C3)N=CN(C4=O)C
Summary of the method: (§1)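 K562 cells (2×10^6 cells/mL) were treated with 10 μM compound for 30 min, and aliquots were heated for 3 min over 48°C-58°C. Pooled aliquots were extracted in PBS with 0.5% NP-40 at 4°C, and the supernatant after 21,000xg for 90 min was measured by TMTpro 16plex LC-MS/MS with channel sums equalised. Reported thermal stability, relative to control samples and from duplicates, is a log2 fold change.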

Sequences of proteins named here, by UniProt entry; tags and fusion partners are left off. A change or cut given only in a name is not applied to a line headed by its entry.
UniProt O14975, whole entry, looked up: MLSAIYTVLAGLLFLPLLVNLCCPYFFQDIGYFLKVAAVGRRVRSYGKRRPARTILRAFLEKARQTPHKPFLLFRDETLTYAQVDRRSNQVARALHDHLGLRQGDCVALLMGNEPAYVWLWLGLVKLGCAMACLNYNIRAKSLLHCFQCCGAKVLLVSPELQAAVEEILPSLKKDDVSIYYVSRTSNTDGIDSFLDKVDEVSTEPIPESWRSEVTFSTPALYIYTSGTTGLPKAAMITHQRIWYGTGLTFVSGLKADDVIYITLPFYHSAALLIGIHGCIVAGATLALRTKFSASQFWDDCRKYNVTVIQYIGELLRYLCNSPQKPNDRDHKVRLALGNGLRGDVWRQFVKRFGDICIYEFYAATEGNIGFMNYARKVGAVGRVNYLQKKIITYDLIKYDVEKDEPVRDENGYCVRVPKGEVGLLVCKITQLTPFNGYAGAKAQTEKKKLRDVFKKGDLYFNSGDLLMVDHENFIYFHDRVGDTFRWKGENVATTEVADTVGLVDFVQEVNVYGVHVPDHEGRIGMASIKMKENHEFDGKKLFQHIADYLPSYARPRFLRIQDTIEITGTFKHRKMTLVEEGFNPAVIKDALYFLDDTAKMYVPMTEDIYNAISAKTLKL
UniProt P49281: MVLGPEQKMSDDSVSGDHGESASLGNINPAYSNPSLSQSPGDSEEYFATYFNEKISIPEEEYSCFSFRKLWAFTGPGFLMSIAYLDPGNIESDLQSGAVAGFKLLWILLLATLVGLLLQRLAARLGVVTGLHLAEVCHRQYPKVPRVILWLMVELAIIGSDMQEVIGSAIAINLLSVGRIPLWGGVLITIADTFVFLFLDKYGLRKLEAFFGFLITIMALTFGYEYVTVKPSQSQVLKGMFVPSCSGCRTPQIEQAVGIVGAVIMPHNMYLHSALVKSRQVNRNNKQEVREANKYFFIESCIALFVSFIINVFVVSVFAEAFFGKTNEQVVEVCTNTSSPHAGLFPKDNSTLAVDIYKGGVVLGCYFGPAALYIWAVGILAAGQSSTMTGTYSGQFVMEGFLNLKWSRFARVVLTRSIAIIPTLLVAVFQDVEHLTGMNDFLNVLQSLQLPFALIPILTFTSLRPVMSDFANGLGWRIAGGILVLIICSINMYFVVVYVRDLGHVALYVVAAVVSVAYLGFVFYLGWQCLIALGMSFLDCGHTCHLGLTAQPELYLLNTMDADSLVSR
UniProt Q86VD7: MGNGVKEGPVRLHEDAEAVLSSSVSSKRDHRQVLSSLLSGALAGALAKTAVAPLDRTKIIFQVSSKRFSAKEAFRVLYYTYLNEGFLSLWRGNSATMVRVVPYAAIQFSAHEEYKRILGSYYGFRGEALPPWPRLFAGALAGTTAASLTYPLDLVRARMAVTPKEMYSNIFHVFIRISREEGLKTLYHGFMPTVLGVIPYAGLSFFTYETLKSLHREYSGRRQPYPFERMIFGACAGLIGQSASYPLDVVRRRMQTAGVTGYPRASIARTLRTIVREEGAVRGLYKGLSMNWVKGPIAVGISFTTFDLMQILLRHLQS
UniProt Q14493, whole entry, looked up: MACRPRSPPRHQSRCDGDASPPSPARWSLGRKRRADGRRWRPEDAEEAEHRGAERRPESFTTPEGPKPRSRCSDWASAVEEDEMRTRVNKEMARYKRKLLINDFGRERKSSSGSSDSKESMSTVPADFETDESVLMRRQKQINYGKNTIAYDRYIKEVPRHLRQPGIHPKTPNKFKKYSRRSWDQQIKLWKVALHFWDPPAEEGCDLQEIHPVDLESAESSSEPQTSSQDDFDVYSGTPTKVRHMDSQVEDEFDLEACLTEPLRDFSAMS
UniProt P08195: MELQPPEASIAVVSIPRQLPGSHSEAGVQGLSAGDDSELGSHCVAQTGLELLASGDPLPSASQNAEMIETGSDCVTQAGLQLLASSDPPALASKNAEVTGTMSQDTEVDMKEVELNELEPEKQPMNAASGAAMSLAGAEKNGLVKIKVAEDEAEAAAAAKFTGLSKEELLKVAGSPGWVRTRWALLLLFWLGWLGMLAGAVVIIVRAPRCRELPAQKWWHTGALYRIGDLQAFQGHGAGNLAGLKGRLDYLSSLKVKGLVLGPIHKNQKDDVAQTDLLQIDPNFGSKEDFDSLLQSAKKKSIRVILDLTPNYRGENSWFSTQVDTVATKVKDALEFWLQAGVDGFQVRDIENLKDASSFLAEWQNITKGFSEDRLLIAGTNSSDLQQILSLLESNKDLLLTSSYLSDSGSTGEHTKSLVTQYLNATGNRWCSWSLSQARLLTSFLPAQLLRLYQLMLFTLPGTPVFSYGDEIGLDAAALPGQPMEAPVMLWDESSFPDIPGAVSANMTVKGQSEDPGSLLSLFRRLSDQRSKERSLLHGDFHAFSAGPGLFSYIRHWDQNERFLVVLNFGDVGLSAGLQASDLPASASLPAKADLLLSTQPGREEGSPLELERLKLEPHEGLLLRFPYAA
UniProt P43007: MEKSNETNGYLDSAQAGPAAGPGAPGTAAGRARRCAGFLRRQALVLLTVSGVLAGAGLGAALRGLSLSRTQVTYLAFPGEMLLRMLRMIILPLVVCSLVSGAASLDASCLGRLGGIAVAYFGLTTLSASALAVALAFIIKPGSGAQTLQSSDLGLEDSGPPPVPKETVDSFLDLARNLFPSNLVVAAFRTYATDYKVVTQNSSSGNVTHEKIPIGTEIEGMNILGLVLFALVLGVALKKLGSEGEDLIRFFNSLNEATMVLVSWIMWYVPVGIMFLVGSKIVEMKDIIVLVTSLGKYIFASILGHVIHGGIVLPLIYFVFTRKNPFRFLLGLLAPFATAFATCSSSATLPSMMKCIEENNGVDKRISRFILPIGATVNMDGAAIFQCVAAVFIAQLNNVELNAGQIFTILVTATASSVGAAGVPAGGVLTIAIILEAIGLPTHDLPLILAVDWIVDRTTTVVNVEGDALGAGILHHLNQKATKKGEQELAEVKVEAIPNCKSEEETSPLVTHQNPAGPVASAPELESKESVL
UniProt Q9H1U9: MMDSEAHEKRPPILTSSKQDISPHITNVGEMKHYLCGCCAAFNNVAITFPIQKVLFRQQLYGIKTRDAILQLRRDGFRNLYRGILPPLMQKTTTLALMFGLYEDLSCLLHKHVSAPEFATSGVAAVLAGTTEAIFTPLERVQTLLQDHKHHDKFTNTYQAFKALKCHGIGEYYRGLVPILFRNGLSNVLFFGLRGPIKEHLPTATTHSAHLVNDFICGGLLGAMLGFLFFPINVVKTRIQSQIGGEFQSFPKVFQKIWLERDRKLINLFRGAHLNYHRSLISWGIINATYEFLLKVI
UniProt P53985: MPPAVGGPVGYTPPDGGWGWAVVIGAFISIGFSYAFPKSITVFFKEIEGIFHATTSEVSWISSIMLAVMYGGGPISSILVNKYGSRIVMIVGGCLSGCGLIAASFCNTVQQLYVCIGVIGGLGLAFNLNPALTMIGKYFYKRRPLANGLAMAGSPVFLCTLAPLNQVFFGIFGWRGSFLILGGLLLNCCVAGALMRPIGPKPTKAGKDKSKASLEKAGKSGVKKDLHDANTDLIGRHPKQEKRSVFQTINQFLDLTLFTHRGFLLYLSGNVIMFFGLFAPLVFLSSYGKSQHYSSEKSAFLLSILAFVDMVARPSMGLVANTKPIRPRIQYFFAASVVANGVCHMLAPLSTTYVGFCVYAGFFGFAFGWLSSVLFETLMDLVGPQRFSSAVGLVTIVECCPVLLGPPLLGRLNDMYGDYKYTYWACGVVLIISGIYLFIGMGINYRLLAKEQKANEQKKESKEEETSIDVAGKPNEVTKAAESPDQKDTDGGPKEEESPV
UniProt Q96EP9: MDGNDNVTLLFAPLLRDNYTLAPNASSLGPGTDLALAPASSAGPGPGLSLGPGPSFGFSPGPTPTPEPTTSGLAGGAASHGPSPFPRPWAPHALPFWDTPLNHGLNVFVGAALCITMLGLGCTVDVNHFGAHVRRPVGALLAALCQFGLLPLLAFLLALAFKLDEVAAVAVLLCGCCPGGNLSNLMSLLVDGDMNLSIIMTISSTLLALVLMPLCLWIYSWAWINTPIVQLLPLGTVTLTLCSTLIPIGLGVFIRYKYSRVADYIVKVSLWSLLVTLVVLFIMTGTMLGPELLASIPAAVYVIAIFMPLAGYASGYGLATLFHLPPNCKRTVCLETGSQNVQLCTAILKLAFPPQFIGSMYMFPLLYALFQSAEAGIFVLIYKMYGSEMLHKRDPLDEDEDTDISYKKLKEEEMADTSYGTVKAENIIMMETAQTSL
UniProt Q8WUX1, whole entry, looked up: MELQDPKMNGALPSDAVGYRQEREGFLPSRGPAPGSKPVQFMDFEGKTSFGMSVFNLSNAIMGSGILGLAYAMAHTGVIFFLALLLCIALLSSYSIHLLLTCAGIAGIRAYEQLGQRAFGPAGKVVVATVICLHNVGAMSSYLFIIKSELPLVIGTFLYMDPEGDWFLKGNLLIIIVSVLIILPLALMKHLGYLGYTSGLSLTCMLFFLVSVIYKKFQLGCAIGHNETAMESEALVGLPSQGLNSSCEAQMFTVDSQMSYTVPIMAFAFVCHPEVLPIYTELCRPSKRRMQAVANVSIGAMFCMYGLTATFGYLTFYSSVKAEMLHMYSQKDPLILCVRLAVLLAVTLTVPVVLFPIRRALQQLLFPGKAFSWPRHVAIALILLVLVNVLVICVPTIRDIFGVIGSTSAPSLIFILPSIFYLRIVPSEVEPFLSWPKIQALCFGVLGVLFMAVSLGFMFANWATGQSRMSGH
UniProt P78383: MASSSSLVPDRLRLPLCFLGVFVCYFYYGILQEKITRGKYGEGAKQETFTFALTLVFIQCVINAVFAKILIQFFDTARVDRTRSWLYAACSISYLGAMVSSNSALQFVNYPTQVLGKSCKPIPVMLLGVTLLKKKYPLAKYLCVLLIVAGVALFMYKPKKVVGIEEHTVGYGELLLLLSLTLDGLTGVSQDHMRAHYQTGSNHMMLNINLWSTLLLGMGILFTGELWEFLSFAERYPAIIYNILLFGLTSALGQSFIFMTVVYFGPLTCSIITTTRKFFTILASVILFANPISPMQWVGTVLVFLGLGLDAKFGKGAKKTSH
UniProt Q96QE2: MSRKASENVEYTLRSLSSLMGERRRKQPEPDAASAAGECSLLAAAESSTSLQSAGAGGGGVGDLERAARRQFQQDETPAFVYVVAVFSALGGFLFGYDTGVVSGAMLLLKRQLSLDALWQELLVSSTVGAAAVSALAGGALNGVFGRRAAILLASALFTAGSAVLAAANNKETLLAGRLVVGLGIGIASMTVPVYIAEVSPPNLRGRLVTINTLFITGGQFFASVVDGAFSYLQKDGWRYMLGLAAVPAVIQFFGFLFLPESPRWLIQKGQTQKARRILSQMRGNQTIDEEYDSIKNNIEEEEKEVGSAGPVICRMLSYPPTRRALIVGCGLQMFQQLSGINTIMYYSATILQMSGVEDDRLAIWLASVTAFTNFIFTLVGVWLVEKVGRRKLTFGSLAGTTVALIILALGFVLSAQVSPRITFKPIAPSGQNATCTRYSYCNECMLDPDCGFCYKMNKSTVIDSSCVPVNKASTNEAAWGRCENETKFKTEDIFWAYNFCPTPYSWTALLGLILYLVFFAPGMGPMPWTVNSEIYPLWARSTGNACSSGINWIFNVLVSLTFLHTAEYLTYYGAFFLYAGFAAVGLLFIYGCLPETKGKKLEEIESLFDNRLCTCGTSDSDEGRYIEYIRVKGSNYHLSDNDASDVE
UniProt Q6P1M0: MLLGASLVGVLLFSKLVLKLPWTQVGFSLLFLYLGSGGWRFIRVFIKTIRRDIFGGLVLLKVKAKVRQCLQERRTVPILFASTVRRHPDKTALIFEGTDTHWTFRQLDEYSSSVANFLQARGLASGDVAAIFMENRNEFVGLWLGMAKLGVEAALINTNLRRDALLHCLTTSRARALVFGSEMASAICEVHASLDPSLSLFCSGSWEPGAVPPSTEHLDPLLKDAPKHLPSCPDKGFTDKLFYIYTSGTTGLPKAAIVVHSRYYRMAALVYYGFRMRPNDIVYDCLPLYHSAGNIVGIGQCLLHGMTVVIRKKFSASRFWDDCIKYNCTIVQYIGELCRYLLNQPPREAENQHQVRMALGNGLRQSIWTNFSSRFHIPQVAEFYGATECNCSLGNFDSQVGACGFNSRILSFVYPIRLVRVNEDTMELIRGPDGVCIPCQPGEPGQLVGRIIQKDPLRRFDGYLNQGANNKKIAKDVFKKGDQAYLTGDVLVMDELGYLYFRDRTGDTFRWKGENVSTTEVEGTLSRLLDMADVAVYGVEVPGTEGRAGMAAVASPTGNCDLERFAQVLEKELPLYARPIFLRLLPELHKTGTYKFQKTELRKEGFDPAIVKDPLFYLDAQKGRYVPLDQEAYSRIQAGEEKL
UniProt Q96H78: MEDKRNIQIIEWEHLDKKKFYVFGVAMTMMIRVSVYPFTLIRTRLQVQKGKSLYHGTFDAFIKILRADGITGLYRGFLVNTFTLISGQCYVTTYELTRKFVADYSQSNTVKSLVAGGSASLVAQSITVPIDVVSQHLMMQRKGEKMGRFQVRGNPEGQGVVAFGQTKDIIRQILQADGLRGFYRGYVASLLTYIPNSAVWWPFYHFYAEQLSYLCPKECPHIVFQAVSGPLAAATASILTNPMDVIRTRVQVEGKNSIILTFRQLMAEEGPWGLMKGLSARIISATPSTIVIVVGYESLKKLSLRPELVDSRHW

[2] = compound: CC1=C(C=C(C=C1)NC(=O)C2=CC(=CC=C2)N(C)C)NC(=O)C3=CC=C(C=C3)O
Summary of the method: as §1

[3] = compound: CC1=CC=C(C=C1)SC2=C3C=C(SC3=CN=C2)C(=O)N
Summary of the method: as §1

[4] = compound: CC1=NC(=CC=C1)C2=C(N=C(N2)C(C)(C)C)C3=CC4=NC=CN=C4C=C3
Summary of the method: as §1

[5] = compound: CCCCN(Cc1ccc(C(=O)NO)cc1)C(=O)Nc1ccccc1 [Nexturastat A]
Summary of the method: as §1

[6] = compound: CCCS(=O)(=O)Nc1ccc(F)c(C(=O)c2c[nH]c3ncc(-c4ccc(Cl)cc4)cc23)c1F [vemurafenib]
Summary of the method: as §1

[7] = compound: CCCS(=O)(=O)Nc1ccc(F)c(C(=O)c2c[nH]c3ncc(Cl)cc23)c1F
Summary of the method: as §1

[8] = compound: CCCc1cc(C)[nH]c(=O)c1CNC(=O)c1cc(-c2ccnc(N3CCN(C)CC3)c2)cc2c1cnn2C(C)C
Summary of the method: as §1

[9] = compound: CCN(CC)Cc1ccc2cc(COC(=O)Nc3ccc(C(=O)NO)cc3)ccc2c1 [givinostat]
Summary of the method: as §1

[10] = compound: CCN(CCCOc1ccc2c(Nc3cc(CC(=O)Nc4cccc(F)c4)[nH]n3)ncnc2c1)CCOP(=O)(O)O [barasertib]
Summary of the method: as §1

[11] = compound: CC[C@@H]1C(=O)N(C)c2cnc(Nc3ccc(C(=O)NC4CCN(C)CC4)cc3OC)nc2N1C1CCCC1
Summary of the method: as §1

[12] = compound: CC[C@@H]1C(=O)N(C)c2cnc(Nc3ccc(C(=O)N[C@H]4CC[C@H](N5CCN(CC6CC6)CC5)CC4)cc3OC)nc2N1C(C)C [volasertib]
Summary of the method: as §1

[13] = compound: CC[C@H](C)N1C=C(C2=C(C=C(C=C21)C3=CN=C(C=C3)N4CCNCC4)C(=O)NCC5=C(C=C(NC5=O)C)C)C
Summary of the method: as §1

[14] = compound: CC[C@H](C)[C@@H](C(=O)N[C@@H]([C@@H](C)O)C(=O)N[C@@H](CC(C)C)C(=O)[C@]1(CO1)C)NC(=O)[C@H]([C@@H](C)CC)N(C)C(=O)C [epoxomicin]
Summary of the method: as §1

[15] = compound: CCn1c(C(=O)N(C2CC2)C2CC2)cc2c3c(ncn3C)c(Nc3cc(C)n(C)n3)nc21
Summary of the method: as §1

[16] = compound: CCn1cc(-c2ccnc3[nH]c(-c4cccc(CN(C)C)c4)cc23)c(-c2ccc(NC(=O)N(C)C)cc2)n1
Summary of the method: as §1

[17] = compound: CN(C)CC(=O)Nc1ccc2[nH]c(=O)c3ccccc3c2c1
Summary of the method: as §1

[18] = compound: CN1C2=C(C3=C1C(=O)N(N=C3)CC4=CC(=CC=C4)N)SC(=C2)S(=O)C
Summary of the method: as §1

[19] = compound: CN1CCC(CNc2ccc3ncc(-c4cccc(OC(F)(F)F)c4)n3n2)CC1
Summary of the method: as §1

[20] = compound: CN(CCOC1=CC=C(C=C1)C[C@H]2C(=O)NC(=O)S2)C3=CC=CC=N3 (racemic) [rosiglitazone]
Summary of the method: as §1

Target	log2 fold change [1]	log2 fold change [2]	log2 fold change [3]	log2 fold change [4]	log2 fold change [5]	log2 fold change [6]	log2 fold change [7]	log2 fold change [8]	log2 fold change [9]	log2 fold change [10]	log2 fold change [11]	log2 fold change [12]	log2 fold change [13]	log2 fold change [14]	log2 fold change [15]	log2 fold change [16]	log2 fold change [17]	log2 fold change [18]	log2 fold change [19]	log2 fold change [20]
SLC27A2 (UniProt O14975)	inactive: 0.099	inactive: -0.042	inactive: -0.032	inactive: -0.032	inactive: -0.013	inactive: 0.029	inactive: 0.073	inactive: 0.008	inactive: -0.004	inactive: 0	inactive: -0.094	active: -0.408	inactive: 0	inactive: -0.05	active: 0.277	inactive: -0.064	inactive: 0.016	inactive: -0.092	active: 0.313	–
SLC11A2 isoform 3 (UniProt P49281)	inactive: 0.062	inactive: 0.037	inactive: -0.002	inactive: 0.065	inactive: 0.257	inactive: 0.035	inactive: 0.005	inactive: -0.216	inactive: -0.027	inactive: -0.02	inactive: 0.062	inactive: -0.088	inactive: -0.121	inactive: -0.054	inactive: 0.071	–	inactive: -0.022	inactive: -0.06	–	inactive: -0.007
SLC25A42 (UniProt Q86VD7)	inactive: -0.007	inactive: 0.041	inactive: 0.038	inactive: -0.049	inactive: -0.021	inactive: -0.015	inactive: 0.089	inactive: -0.054	inactive: -0.006	inactive: 0.001	inactive: -0.025	inactive: 0.039	inactive: -0.028	inactive: 0	–	inactive: 0.002	inactive: -0.021	inactive: 0.022	inactive: 0.022	–
SLC4A1AP (UniProt Q9BWU0)	inactive: -0.085	inactive: -0.054	inactive: -0.032	inactive: 0.004	inactive: 0.077	inactive: 0.065	inactive: -0.05	inactive: -0.007	inactive: 0.077	inactive: 0.006	inactive: -0.048	inactive: -0.117	inactive: 0.04	inactive: 0.056	inactive: -0.05	inactive: 0.023	inactive: 0.023	inactive: -0.001	inactive: -0.024	inactive: 0.028
SLBP (UniProt Q14493)	inactive: -0.012	inactive: -0.08	inactive: 0.019	inactive: 0.099	inactive: -0.218	inactive: 0.028	inactive: 0.057	inactive: 0.024	inactive: 0.055	inactive: 0.06	inactive: -0.052	inactive: -0.034	inactive: 0.013	inactive: 0.127	–	inactive: 0	inactive: -0.003	inactive: 0.113	active: -0.291	–
SLC3A2 isoform 3 (UniProt P08195)	inactive: 0.025	inactive: -0.006	inactive: 0.011	inactive: 0.009	inactive: -0.053	inactive: 0.014	inactive: 0.041	inactive: -0.014	inactive: -0.005	inactive: -0.005	inactive: 0.024	inactive: -0.033	inactive: -0.028	inactive: 0.026	inactive: 0.016	inactive: -0.044	inactive: -0.011	inactive: -0.113	inactive: 0.218	inactive: -0.017
SLC38A9 (UniProt Q8NBW4)	inactive: 0.075	inactive: 0.007	inactive: -0.05	inactive: 0.023	inactive: 0.088	inactive: -0.036	inactive: -0.012	inactive: -0.105	inactive: 0.021	inactive: -0.006	inactive: -0.013	inactive: -0.003	inactive: -0.022	inactive: -0.02	–	inactive: 0.055	inactive: -0.039	inactive: 0.029	inactive: -0.197	–
SLC1A4 (UniProt P43007)	inactive: -0.005	inactive: -0.059	inactive: -0.016	inactive: -0.064	inactive: 0.043	inactive: -0.047	inactive: 0.045	inactive: -0.039	inactive: 0.02	inactive: -0.024	inactive: 0.156	inactive: 0.024	inactive: -0.05	inactive: -0.01	inactive: 0.009	inactive: -0.014	inactive: -0.06	inactive: -0.154	inactive: 0.195	inactive: -0.031
SLC25A51 (UniProt Q9H1U9)	inactive: -0.028	inactive: 0.028	inactive: 0	inactive: 0.012	inactive: -0.02	inactive: 0.029	inactive: -0.044	inactive: -0.003	inactive: -0.014	inactive: -0.016	inactive: 0.081	inactive: 0.077	inactive: -0.022	inactive: -0.002	inactive: 0.01	inactive: 0.005	inactive: 0.003	inactive: -0.023	inactive: 0.058	inactive: 0.018
SLC16A1 (UniProt P53985)	inactive: -0.031	inactive: -0.03	inactive: 0.037	inactive: -0.021	inactive: -0.057	inactive: 0.016	inactive: -0.004	inactive: 0.061	inactive: 0.005	inactive: -0.031	inactive: 0.05	inactive: -0.007	inactive: -0.053	inactive: -0.104	inactive: 0.069	inactive: -0.017	inactive: 0.011	inactive: -0.108	inactive: 0.163	inactive: 0.02
SLC10A4 (UniProt Q96EP9)	inactive: -0.099	inactive: 0.04	inactive: -0.057	inactive: -0.205	inactive: 0.087	inactive: -0.181	inactive: -0.145	inactive: -0.1	inactive: 0.085	inactive: 0.052	inactive: 0.103	inactive: 0.003	inactive: -0.087	inactive: -0.048	inactive: 0.01	inactive: 0.105	inactive: -0.096	inactive: 0.142	inactive: -0.033	inactive: 0.009
SLC38A5 (UniProt Q8WUX1)	inactive: 0.048	inactive: -0.005	inactive: -0.01	inactive: -0.007	inactive: -0.077	inactive: 0	inactive: 0.061	inactive: -0.065	inactive: 0.018	inactive: -0.016	inactive: 0.076	inactive: 0.067	inactive: -0.046	inactive: 0.04	inactive: 0.014	inactive: -0.062	inactive: 0.007	inactive: -0.057	inactive: 0.081	inactive: 0.031
SLC39A7 (UniProt Q92504)	inactive: -0.082	inactive: 0.085	inactive: -0.058	inactive: 0.016	inactive: 0.012	inactive: -0.106	inactive: 0	inactive: -0.09	inactive: -0.06	inactive: -0.02	inactive: 0.004	inactive: 0.094	inactive: -0.042	inactive: -0.075	inactive: 0.081	inactive: -0.02	inactive: -0.057	inactive: 0.003	inactive: 0.073	inactive: -0.049
SLC35B1 isoform 2 (UniProt P78383)	inactive: 0.165	inactive: -0.109	–	inactive: 0.054	inactive: 0.072	inactive: 0.267	–	inactive: -0.221	inactive: 0.069	inactive: -0.055	inactive: 0.123	–	inactive: -0.017	inactive: 0.066	–	–	inactive: 0.075	inactive: -0.111	–	–
SLC2A13 (UniProt Q96QE2)	inactive: -0.004	inactive: 0.046	inactive: 0.176	–	inactive: -0.079	inactive: -0.015	inactive: -0.192	–	inactive: -0.072	inactive: 0.17	inactive: 0.148	inactive: 0.006	–	inactive: 0.044	inactive: 0.046	inactive: -0.031	inactive: -0.07	inactive: 0.081	inactive: -0.033	inactive: 0.104
SLC27A4 (UniProt Q6P1M0)	inactive: -0.074	inactive: -0.072	inactive: 0.011	inactive: -0.096	inactive: -0.014	inactive: -0.039	inactive: -0.031	inactive: -0.017	inactive: 0.021	inactive: 0.056	inactive: -0.048	active: -0.473	inactive: 0.03	inactive: -0.064	–	inactive: -0.036	inactive: 0.04	inactive: -0.051	inactive: -0.158	–
SLC25A44 (UniProt Q96H78)	inactive: 0.016	–	inactive: 0.001	inactive: -0.013	inactive: 0.004	inactive: 0.027	inactive: -0.041	inactive: -0.031	–	inactive: 0.035	inactive: 0.063	inactive: 0.013	inactive: 0.003	inactive: -0.046	–	inactive: 0.051	inactive: -0.018	inactive: -0.025	inactive: 0.116	inactive: -0.252

Individual results from above:
log2 fold change [3] with SLBP (UniProt Q14493) is entered as inactive: 0.019
log2 fold change [5] with SLC4A1AP (UniProt Q9BWU0) is entered as inactive: 0.077

— the supplement of paper PMC10849652
